According to doi:10.1101/2022.01.26.477835:
Results are given in words; binding and its absence hold for the method and conditions named. In cells and extracts the contact can be indirect. Some entries that bind do so weakly or less than the wild type. Sequences can lack the tags named with a protein. One block for each binder: values may come before it.

How the values were obtained:
[1] = target: T1, Flag-tagged full-length TRPM8 (Flag-TRPM8) (rat), Q8R455; assay: cross-linking; details: remark: other sources report otherwise
[2] = target: T1, Flag-tagged full-length TRPM8 …; assay: co-IP; details: remark: other sources report otherwise

binding [1]: binds
B1: Flag-tagged full-length TRPM8 (Flag-TRPM8), Q8R455 1-1104 (protein)
chain: MSFEGARLSMRSRRNGTLGSTRTLYSSVSRSTDVSYSESDLVNFIQANFKKRECVFFTRDSKAMESICKCGYAQSQHIEGTQINQNEKWNYKKHTKEFPTDAFGDIQFETLGKKGKYLRLSCDTDSETLYELLTQHWHLKTPNLVISVTGGAKNFALKPRMRKIFSRLIYIAQSKGAWILTGGTHYGLMKYIGEVVRDNTISRNSEENIVAIGIAAWGMVSNRDTLIRNCDDEGHFSAQYIMDDFMRDPLYILDNNHTHLLLVDNGCHGHPTVEAKLRNQLEKYISERTSQDSNYGGKIPIVCFAQGGGRETLKAINTSVKSKIPCVVVEGSGQIADVIASLVEVEDVLTSSMVKEKLVRFLPRTVSRLPEEEIESWIKWLKEILESPHLLTVIKMEEAGDEVVSSAISYALYKAFSTNEQDKDNWNGQLKLLLEWNQLDLASDEIFTNDRRWESADLQEVMFTALIKDRPKFVRLFLENGLNLQKFLTNEVLTELFSTHFSTLVYRNLQIAKNSYNDALLTFVWKLVANFRRSFWKEDRSSREDLDVELHDASLTTRHPLQALFIWAILQNKKELSKVIWEQTKGCTLAALGASKLLKTLAKVKNDINAAGESEELANEYETRAVELFTECYSSDEDLAEQLLVYSCEAWGGSNCLELAVEATDQHFIAQPGVQNFLSKQWYGEISRDTKNWKIILCLFIIPLVGCGLVSFRKKPIDKHKKLLWYYVAFFTSPFVVFSWNVVFYIAFLLLFAYVLLMDFHSVPHTPELILYALVFVLFCDEVRQWYMNGVNYFTDLWNVMDTLGLFYFIAGIVFRLHSSNKSSLYSGRVIFCLDYIIFTLRLIHIFTVSRNLGPKIIMLQRMLIDVFFFLFLFAVWMVAFGVARQGILRQNEQRWRWIFRSVIYEPYLAMFGQVPSDVDSTTYDFSHCTFSGNESKPLCVELDEYNLPRFPEWITIPLVCIYMLSTNILLVNLLVAMFGYTVGIVQENNDQVWKFQRYFLVQEYCNRLNIPFPFVVFAYFYMVVKKCFKCCCKEKNTESSACCFRNEDNETLAWEGVMKENYLVKINTKANDNAEEMRHRFRQLDTKLNDLKGLLKEIANKIK

binding [2]: binds
B2: GFP-tagged wild type TRPM8 (GFP-TRPM8), Q8R455 1-1104 (protein)
chain: B1 chain
